54 sequences from paper PMC7819943, “Rice protein-binding microarrays: a tool to detect cis-acting elements near promoter regions in rice” can be followed below.

Amino acid sequences for entries named in this document (tags omitted).
UniProt Q0JBA9, entry or part of it: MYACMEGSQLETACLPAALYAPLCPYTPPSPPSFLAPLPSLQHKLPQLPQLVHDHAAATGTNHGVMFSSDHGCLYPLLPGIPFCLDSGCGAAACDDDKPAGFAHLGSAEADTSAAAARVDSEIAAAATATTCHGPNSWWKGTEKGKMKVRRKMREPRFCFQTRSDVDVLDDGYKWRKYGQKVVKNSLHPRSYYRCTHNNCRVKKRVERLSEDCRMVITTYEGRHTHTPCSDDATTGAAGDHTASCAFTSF

The list shows a part of the results.

The assay deals with OsWRKY34 (Oryza sativa, UniProt Q0JBA9 1-250). Kind of assay: protein-binding microarray (RPBM); PBS, 2% BSA, 51.3 ng/ul salmon testes DNA, 50 uM zinc acetate, 200 nM TF, 25 C, 1 h; high values mean tight binding. Conditions: protein: recombinant; tags: N-terminal polyhistidine and DsRed monomer fusion (pET32a); label: CyDye5-dUTP incorporated in the synthesized complementary strand; 3' TTTTT single-stranded linker to array surface; dsDNA, one strand shown. The procedure, abridged:
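Transcription factors were each fused at the N-terminus to a polyhistidine tag plus DsRed and expressed in E. coli BL21-CodonPlus before Ni–NTA purification. Binding to a double-stranded custom Agilent array was carried out with 200 nM protein at 25 °C for 1 h in PBS, 2% BSA, salmon testes DNA and 50 µM zinc acetate. The binding signal is per-feature fluorescence intensity, in arbitrary units, on an Axon 4000B scanner.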
Consider “TTGTTCTTGCTGCATTTCTTCTTCTCGTTTTTTTTTCTTTCGGAGTCACCTAGTGCAG”, for which the binding signal is 16900 fluorescence intensity (a.u.).

Take “GTGGGCGGGGAGGGCGGATCTGCCACCGTCGAGCCGCGGGCGGAGTCACCTAGTGCAG”: the binding signal was 10100 fluorescence intensity (a.u.).

As to “ACATGGTTGCTCATTGCCACTGGGCTGCTTCAATTCGGTTCGGAGTCACCTAGTGCAG”, the binding signal was 8380 fluorescence intensity (a.u.).

For the sequence “CTCCTCTGGGCGCGCGCTGTGGCGGTGGCGTTCACGTTCTCGGAGTCACCTAGTGCAG”, the binding signal is 8490 fluorescence intensity (a.u.).

With “GATCCGACTCCTACTTCTAACGTAGATTTTCGGCCTTTATCGGAGTCACCTAGTGCAG”, the binding signal was 8370 fluorescence intensity (a.u.).

Turning to “TTGCAAATGCAACCCTATTATGCCATCCTTTGTTATCCTGCGGAGTCACCTAGTGCAG”, the binding signal is 9550 fluorescence intensity (a.u.).

“GGTCGCCGCCGTGGGTTATGTTTGTCTATCCTGCCGGCTTCGGAGTCACCTAGTGCAG”: the binding signal was 9640 fluorescence intensity (a.u.).

For “TCTCTCCAAATTGTTATCCATTTCGTCTGTGTTCAGCATCCGGAGTCACCTAGTGCAG”, the binding signal was 12500 fluorescence intensity (a.u.).

Take “GACTTTTTAGCACATGTTTGACCGTTCGTCTTATTCAAAACGGAGTCACCTAGTGCAG”: the binding signal is 10800 fluorescence intensity (a.u.).

In the case of “GCTTTACTCTTCCTAGGAATATATCTGTGTGTCCAGAAAACGGAGTCACCTAGTGCAG”, the binding signal is 9610 fluorescence intensity (a.u.).

Consider “GCTAATTCCTTCTTGCATGTTTTCATGGGCCTGGTTGCCACGGAGTCACCTAGTGCAG”, for which the binding signal is 8960 fluorescence intensity (a.u.).

For the sequence “AAGCCAACCCAACCCGCACCTTCTCGCTGCTTCTACTACTCGGAGTCACCTAGTGCAG”, the binding signal was 13100 fluorescence intensity (a.u.).

As for “CGTACCTAGTCAAACACGCGTCTATATATCAACCTACCTACGGAGTCACCTAGTGCAG”, the binding signal is 10800 fluorescence intensity (a.u.).

With “CAAGAACCCTTCTTTATAGATCTGTGCCCTTGCTGTTCATCGGAGTCACCTAGTGCAG”, the binding signal is 10700 fluorescence intensity (a.u.).

Turning to “TCACTTCCCTAGTTCCCTTGCTGCAGTTGCGTTGCACCAGCGGAGTCACCTAGTGCAG”, the binding signal is 8410 fluorescence intensity (a.u.).

In the case of “GGCCGGCCCGTCGCTCCACGCCTCGGATCACCACTGTCTTCGGAGTCACCTAGTGCAG”, the binding signal was 8580 fluorescence intensity (a.u.).

For the sequence “GGTGACAGGCAGTCCACATCCTTATCGCTCTTTGCTAGTTCGGAGTCACCTAGTGCAG”, the binding signal was 8510 fluorescence intensity (a.u.).

On to “TTTCTTTATAATACGATGTTGACTGTATCAACTGTTTCTTCGGAGTCACCTAGTGCAG”, for which the binding signal is 8890 fluorescence intensity (a.u.).

As to “TCCTCGACACAATTCCAAAGTGCACTTCTCCACTTCACTCCGGAGTCACCTAGTGCAG”, the binding signal is 8070 fluorescence intensity (a.u.).

Consider “CGACTCCCACACGCCATGCCCATCGCGCCCGCGGCTTGCACGGAGTCACCTAGTGCAG”, for which the binding signal was 8240 fluorescence intensity (a.u.).

Regarding “TTGTTCACCTCACCTCAGCTCGTCTCTCTGACTTTGATCTCGGAGTCACCTAGTGCAG”, the binding signal is 9320 fluorescence intensity (a.u.).

Turning to “ATGGACCGCCACCTCGCGCCGAGCTTCCAGATCCCGCCGGCGGAGTCACCTAGTGCAG”, the binding signal was 9900 fluorescence intensity (a.u.).

As for “CGGTATCATCTCATCTCATCTCAATTTCTCCTGTTGTGTTCGGAGTCACCTAGTGCAG”, the binding signal is 8290 fluorescence intensity (a.u.).

As to “CACTTGAGCCCCATATGTTTTTTTTTTCTAATGCCACGTCCGGAGTCACCTAGTGCAG”, the binding signal was 8880 fluorescence intensity (a.u.).

For the sequence “GCTGTGTTCGATACCCTTGAGTTCCTCGTGTACGCTTTTCCGGAGTCACCTAGTGCAG”, the binding signal was 9270 fluorescence intensity (a.u.).

In the case of “AAACCCGCGCCTCCTCCGCTCTCGTCCGTCGCTTCGGTTCCGGAGTCACCTAGTGCAG”, the binding signal is 12800 fluorescence intensity (a.u.).

Consider “AACGTCCGAAATTATCCCTTTCATATCCGCTCCAACACATCGGAGTCACCTAGTGCAG”, for which the binding signal was 9470 fluorescence intensity (a.u.).

As for “GTCGTGTACAAACATTTACTGTACCAGCTAGCGCTCCAGTCGGAGTCACCTAGTGCAG”, the binding signal is 11800 fluorescence intensity (a.u.).

For “ATCCCACTCCCACTTCCATATCGGCGTAACGCTCCTGTAACGGAGTCACCTAGTGCAG”, the binding signal was 8090 fluorescence intensity (a.u.).

On to “CACACATTTGCTATCCTGTCTCCTGTTAATTAGACATTTTCGGAGTCACCTAGTGCAG”, for which the binding signal is 8130 fluorescence intensity (a.u.).

“CCATGGTTGGGGAGGTTGAAACCCGGTCTCTTCCTGGCTGCGGAGTCACCTAGTGCAG”: the binding signal is 9580 fluorescence intensity (a.u.).

For “TCTCGGGTATTTAGTTCCAAGAGAACATCTCAGTTCTATTCGGAGTCACCTAGTGCAG”, the binding signal was 10500 fluorescence intensity (a.u.).

Turning to “TGGGGATGGATATGGCGCTCCGGGGATGGAGGTGGTGGTGCGGAGTCACCTAGTGCAG”, the binding signal was 8620 fluorescence intensity (a.u.).

As to “GAAACCACATGAATTCCGCCTCTATCATAACCGCCCAATGCGGAGTCACCTAGTGCAG”, the binding signal was 8920 fluorescence intensity (a.u.).

Regarding “GCTTGCTTAAGTCAATGTACATCCTTCCATTTTGATGAAGCGGAGTCACCTAGTGCAG”, the binding signal is 8310 fluorescence intensity (a.u.).

Take “TCTTTGTGGTCCTTGGTCGTGATTCTTCTTATTGCTTTTTCGGAGTCACCTAGTGCAG”: the binding signal is 14800 fluorescence intensity (a.u.).

With “AGTTTTTGTGCGCATATGCTTTTCTCTTCTCTCTCTCTCTCGGAGTCACCTAGTGCAG”, the binding signal is 10800 fluorescence intensity (a.u.).

Regarding “CGCTGATTGGGTTGGGTCGGGTTAGCTTTGGTTTCAATGCCGGAGTCACCTAGTGCAG”, the binding signal was 11200 fluorescence intensity (a.u.).

Take “ACTTCTTTCTCTCTACTCTTCTACTAGTACACTACGCAACCGGAGTCACCTAGTGCAG”: the binding signal was 9020 fluorescence intensity (a.u.).

Consider “GTCTGCTACTCCTACTACTCTGCTTTGCCACTACTTGGTTCGGAGTCACCTAGTGCAG”, for which the binding signal is 9900 fluorescence intensity (a.u.).

For the sequence “ATTAACTCTCGTTTTTTGCTTAGTTGGTGTCGCTGTCAAACGGAGTCACCTAGTGCAG”, the binding signal is 9250 fluorescence intensity (a.u.).

For “GCGTATAATATACTAGCGCTTGTTAATATATTTTATTATACGGAGTCACCTAGTGCAG”, the binding signal was 8220 fluorescence intensity (a.u.).

Regarding “CATGTTACATGCTCTCTCTTGCGCTCCATATCCTCGCTCCCGGAGTCACCTAGTGCAG”, the binding signal was 9100 fluorescence intensity (a.u.).

Take “GACTACGATCTCGTCGGTATCGCCTGTTTCGGTTACTCTCCGGAGTCACCTAGTGCAG”: the binding signal was 8550 fluorescence intensity (a.u.).

Consider “AACTCTATTATTGCAAGTCTTATACGTGTTGGAGTATTCACGGAGTCACCTAGTGCAG”, for which the binding signal is 8360 fluorescence intensity (a.u.).

Turning to “CAGCTACATCGAGTACGTCTACTTCTACTTCAAGTCGCAACGGAGTCACCTAGTGCAG”, the binding signal was 9270 fluorescence intensity (a.u.).

Turning to “GATCTTTCTCTCATCGACGAGCGCGAGCTGCTAGTATAATCGGAGTCACCTAGTGCAG”, the binding signal is 8610 fluorescence intensity (a.u.).

Consider “TATGTCTGGTTCGGTTTGAGGGGATTGAGAGAAAATAATTCGGAGTCACCTAGTGCAG”, for which the binding signal is 8660 fluorescence intensity (a.u.).

Take “GAATAGCTGCTTGTTAACTAGGGATTAGAGGTGGGGTTTTCGGAGTCACCTAGTGCAG”: the binding signal is 8610 fluorescence intensity (a.u.).

Consider “CATACGAAGCATCCTTTTGGTTTCAATAAACATATTATGTCGGAGTCACCTAGTGCAG”, for which the binding signal is 8270 fluorescence intensity (a.u.).

As for “TACCAATTTTCTCCGTGTTTTGGAATTTTTTTCGGCTCCTCGGAGTCACCTAGTGCAG”, the binding signal is 8050 fluorescence intensity (a.u.).

“GCACTACTACTACACTCATACTCTCTTCTCTCTCCTGTTCCGGAGTCACCTAGTGCAG”: the binding signal is 10600 fluorescence intensity (a.u.).

As for “CTCAACCTCTCGGTCGTCGGCCTCGTCCTCCGGGCCGGCACGGAGTCACCTAGTGCAG”, the binding signal is 12000 fluorescence intensity (a.u.).

With “GGCACTACCTCAAGATGCTTTGATGCAGATGTCTGTTGTCCGGAGTCACCTAGTGCAG”, the binding signal was 10300 fluorescence intensity (a.u.).
